Reference: patent publication US9458203B2 (priority 2011, dated 2016)
Some peptides are written in HELM: one residue between dots, names in brackets for other building blocks, links after the first $.

Assay: general procedure: Fmoc solid-phase peptide synthesis; Fmoc-Phe(Otbu)-wang resin or Fmoc-Arg(Otbu)-CTC resin (I); Fmoc-Arg(Otbu)-wang or CTC resin (II); Fmoc-Phe(Otbu)-wang or
Conditions: whole synthesis, RP-HPLC

## PEPTIDE1{R.G.D.G.G.G.G.F.Q.P.V.L.H.L.V.A.L.N.S.P.L.S.G.G.M.R.G.I.R.G.A.D.F.Q.C.F.Q.Q.A.R.A.V.G.L.A.G.T.F.R.A}$$$$V2.0
  final HPLC purity: 98.41%

## PEPTIDE1{F.Q.P.V.L.H.L.V.A.L.N.S.P.L.S.G.G.M.R.G.I.R.G.A.D.F.Q.C.F.Q.Q.A.R.A.V.G.L.A.G.T.F.R.A}$$$$V2.0
  final HPLC purity: 95.39%
